## Primary screen of a compound library

Measurements from “University of Dundee, Small-Polar-MMV Screening Library” (2021), ChEMBL document CHEMBL3988442.

A: 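Growth of Mycobacterium tuberculosis over 4 days (cholesterol / DPPC medium with tyloxapol); the read-out is not stated. Concentration: 50 µM. Higher reads as more growth inhibition (inferred: compounds with an IC50 in retests scored well above the rest). Size under these conditions: about 69,000 compounds, about 370 of them at 50% or above in at least one test.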
B: 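Phenotypic screen: M. tuberculosis growth, glucose 7H9 medium, 3 days; the read-out is not stated. Concentration: 50 µM. The record gives no direction; compounds that gave an IC50 in retests scored well above the rest, so higher reads as more growth inhibition. Of about 69,000 compounds tested this way, about 760 (1.1%) reached 50% or more in at least one test.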

The filed quantity is “Percent Effect” (%).
The record does not define 0% and 100%; most values in the screen are far below 50% and negative numbers occur (in some assays of this library far below -100).
Compounds were drawn at random from those tested, without regard to their results.
Two or more numbers in one place are separate tests of the same structure; such repeats can differ widely.

Compound	A	B
[H][C@@]12C[C@H](C(=O)NC3CCC3)[C@@]([H])(CN(c3ncc(CC)cn3)C1)O2	-8.521	-6.922 & 1.777
COc1nc2c(cc1C(=O)N(C)Cc1n[nH]c3c1CCCC3)CCC2	8.639	13.49
COc1cc(C2C3=C(COC3=O)Nc3[nH]nc(C)c32)cc2c1OCO2 (stereo not shown)	-3.984 & 20.05	19.64
CN(CC(=O)NC(C)(C)C)Cc1cccc2c1OCCO2	-44.36	-5.191 & -3.149
CCN(CC)C(=O)CSc1nc2cc(C)nc-2c(O)n1CC	1.583	25.23
Cc1cc(C(=O)N2C[C@@H](CN3CCCCC3)[C@@H](CO)C2)ccc1O	-4.244 & 5.663	-29.4
NC(=O)c1ccc(CNC2CCCSC2)cc1 (stereo not shown)	13.63	-4.651
Cc1nc(C)n(C2CCCN(C(=O)Cc3n[nH]c4ccccc34)C2)n1 (stereo not shown)	-5.517	0.8
Cn1ccc2c(NC(=O)Cn3ncc4c(c3=O)CCCCC4)cccc21	9.364	24.36 & 28.1
COc1ccc(F)c(CN2CCCC(O)(CNCc3ccoc3)C2=O)c1 (stereo not shown)	8.289	21.47
Cc1nc(CN2CCCN(C(=O)c3sccc3C#N)CC2)cs1	8.138	4.719
O=C(O)C(F)(F)F.[H][C@@]12CCN(C(=O)c3ccc[nH]3)C[C@]1([H])[C@@H](CN(C)C)OC2	-20.69	-26.16
Br.Cc1ccccc1OC1CCN(CC(=O)Nc2ccn(C)n2)CC1	10.05 & 8.509	24.05
CCc1noc(C2CCCCN2C(=O)c2cc(C)oc2C)n1 (stereo not shown)	-23.96	-1.544
O=C(O)C(F)(F)F.[H][C@@]12CN(CC3CC3)C[C@]1([H])[C@H](OC)CCN2C(=O)c1ccsc1	-20.49	0.1079
Cc1cccnc1CCNCC1(O)CCCN(CC2CCCCC2)C1=O (stereo not shown)	-37.41	23.33
c1csc(-c2cc(CN3CCN(c4cnccn4)CC3)no2)c1	22.7	42.72
Cn1cc(Cl)cc1C(=O)N1CCCN(Cc2ccccc2)CC1	-17.24	1.077
CSCC(C)(O)CNS(=O)(=O)c1ccc(Br)cc1 (stereo not shown)	14.96	6.018
CS(=O)(=O)N1CCCN(CCCSCc2ccccc2)CC1	4.966	0.3226
Cn1ccc(CN2CCC3(CC2)CC(Nc2ccccn2)CO3)n1.O=C(O)C(F)(F)F (stereo not shown)	3.744	-10.41 & 0.9509
Cc1nc(C)n(CC2CCCCN2Cc2ncc(C(C)(C)C)o2)n1 (stereo not shown)	-8.223	8.157
CC(=O)N1CCCN(C(=O)c2oc(Br)cc2C)CC1	22.34	-4.195
Cc1cc(C)cc(CN2CCN(Cc3cccc(CCN)c3)CC2=O)c1	17.94	14.89
O=C1CN(c2ccc(CNC(=O)c3ccc[nH]3)cc2F)CCN1	-0.6893 & -13.25	-5.052
CN(C)c1ncnc2c1CCN(CC1CCOC1)CC2.O=C(O)C(F)(F)F (stereo not shown)	-4.423	-14.86
O=C(NCCc1ccccc1F)NCC(O)c1cccc(F)c1 (stereo not shown)	-13.21	-1.398
Cc1cc(C(=O)NC2(C#N)CCCC2)c(C)n1-c1cccnc1	-20.14	-8.191
O=C(Cc1cn2ccsc2n1)N1CCCC(n2ccnc2)C1 (stereo not shown)	-19.44	-26.79
Cc1nn(C)c(N2CCOCC2)c1CNCC1CCN(C2CC2)C1 (stereo not shown)	-17.16	-24.23
CCc1nc(C(=O)NCc2ccc(N3CCNC(=O)C3)c(F)c2)c[nH]1	-34.24	0.3027
CCn1ccnc1C1CCN(C(=O)C(O)c2ccc(OC)cc2)CC1 (stereo not shown)	5.145	24.97
COCc1nc(N(C)C)ncc1C(=O)Nc1ccc(Cl)cc1	-6.2	3.728
CSCc1cc(F)ccc1CNC(=O)N1CCCC1	19.34 & 0.0969	23.44
COC(=O)N1CC[C@@]2(C1)[C@H](OC)CN(c1ccccc1)S2(=O)=O	1.135	1.563
[H][C@@]12CS(=O)(=O)C[C@]1([H])N(C(=O)CSc1ccccn1)CCN2CCO	6.711	-6.888 & -6.525
CCn1cc(N2Cc3nc(N4CCC(C)CC4)ncc3C2=O)cn1	4.006	25.42
COc1ncc(-c2nccn2C(C)CCn2cccn2)cn1 (stereo not shown)	5.677	3.642
NC(=O)C(CNC(=O)CCc1ccsc1)Cc1ccc(F)cc1 (stereo not shown)	-20.34	-11.85
CCc1nc(CN2CCCN(C(=O)CC(F)(F)F)CC2)cs1	-5.241	11.6
O=C(c1cnccn1)N1CCN(CC2CC2)c2ncccc2C1	7.019	4.516
CCNc1ncc(C(=O)NC2CCc3ccccc3C2)cn1 (stereo not shown)	-19.63	-19.11
COc1ccc(C2CCCN2C(=O)Nc2ccc(OC)nc2)cc1 (stereo not shown)	18.21	0.5571
COCC1COCCC12CCN(C(=O)Cc1cccc(OC)c1)CC2 (stereo not shown)	-8.847	-9.005
CCCc1n[nH]c(C2CN(CCCOc3ccccc3)CCO2)n1 (stereo not shown)	0.6665	49.16
C=Cn1cc(CN2CCc3nc(-c4cccnc4)nc(O)c3C2)c(C)n1	7.812	21.46
CCc1nc(C)c(C(C)N(C)CCc2ccncc2)s1 (stereo not shown)	-7.613	-7.774 & -1.815
CCOC1CCN(C(=O)NCc2ccc(C(=O)N(C)C(C)C)cc2)CC1	0.8786	-4.01 & 13.1
CSC(C)C(=O)N(C)C1CCN(c2ccc(Cl)cc2)CC1 (stereo not shown)	1.64	1.144
O=C(CCCc1ccc(Cl)cc1)N1CCN(C(=O)c2ccc[nH]2)CC1	-0.5143 & 17.21	10.92
COc1ccc(Cl)cc1NC(=O)CN1CCc2nc(NC(C)=O)sc2C1	-26.21	6.948
Nc1cc(C(=O)N2CCCC(C(=O)CCc3ccccc3)C2)ccn1 (stereo not shown)	23.69	17.76
CCn1nc(C(C)C)cc1C(=O)NCCCOC	-4.577	11.79 & 0.9922
O=C(c1cc2cc(F)ccc2[nH]1)N1CCC(Nc2ccc(F)cc2)CC1	-29.6	-6.336
CC(=O)c1cccc(OCCCC(=O)NC(C#N)CC(C)C)c1 (stereo not shown)	2.614	-0.6322 & -16.07
CC(=O)NCC(=O)N1CCn2cc(CN3CCCCC3)nc2C1.O=C(O)C(F)(F)F	10.3	13.34 & -4.298
Cc1[nH]c2c(C)ccc(C)c2c1CC(=O)NCCNc1cccnc1	18.82	30.74
O=C(O)C(F)(F)F.[H][C@]12CCN(S(=O)(=O)C3CC3)[C@@]1([H])CCC(=O)N2CCN1CCCC1	-32.32	-81.96
c1ccc(-c2cc(CNCCN3CCOCC3)c3nnnn3c2)cc1	-16.78	-13.85